# Measurements reported in PubChem BioAssay AID493014 (National Center for Advancing Translational Sciences (NCATS), 2011).
# Hit rate of the full screen: of about 340,000 compounds, about 170 (0.05%) were called active. The shares of active, inactive and inconclusive entries below differ from those in the screen. Calls come from the whole dose curve; as a rule, active = well fitted inhibition curve with a large enough effect in the signal ratio, with a control signal flat (not every such curve was filed as active); inconclusive = small, poorly fitted or top-dose-only effect, or effect the other way, or a change in a side signal; inactive = flat fitted curve, though single readings scatter; the % refers to the signal ratio. A potency beside an inconclusive call is a rough fit, not a confirmed value.
# Experiment: qHTS Assay to Find Inhibitors of Chronic Active B-Cell Receptor Signaling;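 for activity change, negative = inhibition: plate controls were basal doxycycline-induced cells for no effect and cells given 10 µM MG132 for full effect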
# Conditions: ABC-DLBCL IkBa-CBG/CBR reporter, luminescence ratio (green luciferase fused to IkBa over red control in TMD8 lymphoma cells), 4 h; activity change, negative = inhibition: at 46.1 µM (top of the series) unless noted
# In short: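 TMD8 human ABC-DLBCL cells with doxycycline-inducible IκBα–green luciferase fusion and unfused red luciferase, in 0.5% FBS medium; compounds up to 46 uM, 4 h at 37C. Green/red luminescence ratio, filter-overlap corrected, fitted to concentration-response curves.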
# Potency is the fitted concentration of half-maximal effect.
SMILES,"activity change, negative = inhibition",Potency
O=C(CSc1nnc(-c2ccco2)c(-c2ccco2)n1)Nc1ccccc1,inactive: 8.94%,
Cc1nn(C)c(C)c1S(=O)(=O)N(CC(=O)N1CCc2ccccc21)c1ccc(C(C)C)cc1,inconclusive: 20.5%,
CCCCc1ccc(CC(=O)Nc2cc(S(=O)(=O)N3CCOCC3)ccc2O)cc1,inactive: 4.3%,
CC(C)c1ccccc1OCC(O)CN(CC(O)COc1cccc2ccccc12)C(C)C (stereo unspecified),,"inconclusive: 35.5 µM [falling, single point]"
COc1ccccc1C(=O)Nc1ccc(S(=O)(=O)N2CCCCC2c2cccnc2)cc1 (stereo unspecified),inconclusive: -27.5%,
OCCNCc1cc(Br)ccc1OCc1ccccc1Cl,,"inconclusive: 16.4 µM [falling, single point]"
CCN(CC)c1ccc(S(=O)(=O)N2CCOCC2)cc1NC(=O)CN1CCc2ccccc2C1,inconclusive: -15%,
CC(C)N(C1=CC(=O)OC12CCCCC2)C(C)C,inactive: -4.63%,
COc1ccc(C(=O)/C=C/Nc2ccc(C)cn2)cc1OC,,"inconclusive: 29.1 µM [falling, single point]"
CCOC(=O)C1=C(C)NC(SC)=NC1c1ccc(OC)cc1 (stereo unspecified),inactive: -0.0367%,
CN(C)CCCNC(=O)c1cc(C(=O)c2cccc(Cl)c2Cl)c[nH]1,inactive: -0.547%,
CC(=O)NCC(=O)OCc1ccc([N+](=O)[O-])cc1,inconclusive: 1.31%,
CCOC(=O)c1c(CSc2ccc(C)cc2)oc2ccc(O)cc12,inactive: -18.7%,
COc1cc2nc(NC(=O)c3ccco3)sc(=O)c2cc1OC,inconclusive: 3.38%,
CCN(c1ccccc1)S(=O)(=O)c1ccc2[nH]cc(C(=O)NCc3ccc(C)cc3)c(=O)c2c1,inactive: 4.1%,
C/C(CC(=O)NC(C)(C)C)=N\NC(=O)c1ccccc1N,,"inconclusive: 31.6 µM [rising, single point]"
CC(C)(C)C(=O)N1CCC[C@H]1C(O)(c1ccccc1)c1ccccc1,inconclusive: -7.29%,
CC1Cc2ccccc2N1S(=O)(=O)c1cnc(Cl)c(Cl)c1 (stereo unspecified),inconclusive: 1.43%,
COc1cc(CNC(=O)OCC(C)C)cc(OC)c1OC,inconclusive: 2.16%,
O=C(c1ccc(Cl)cc1)C1CCCN(C(=O)/C=C/c2ccccn2)C1 (stereo unspecified),inconclusive: 3.6%,
O=C(CN1C(=O)S/C(=C\c2ccccc2)C1=O)Nc1cc([N+](=O)[O-])ccc1O,,"inconclusive: 15.8 µM [falling, single point]"

# Of the compounds above, these contain an NH in an aromatic ring:
SMILES,"activity change, negative = inhibition",Potency
CN(C)CCCNC(=O)c1cc(C(=O)c2cccc(Cl)c2Cl)c[nH]1,inactive: -0.547%,
CCN(c1ccccc1)S(=O)(=O)c1ccc2[nH]cc(C(=O)NCc3ccc(C)cc3)c(=O)c2c1,inactive: 4.1%,

# (further entries)

SMILES,"activity change, negative = inhibition",Potency
CCOc1ccc(CNC(=O)C2CCN(c3nn4c(=O)cc(C)nc4s3)CC2)cc1,inactive: -0.618%,
CC1(C)O[C@@H]2C[C@H]3[C@@H]4C[C@H](F)C5=CC(=O)C=C[C@]5(C)[C@@]4(F)[C@@H](O)C[C@]3(C)[C@]2(C(=O)CO)O1,,"inconclusive: 1.58 µM [falling, full curve, poor fit]"
Cc1c(C(=O)O)sc2nc(C)n(C)c(=O)c12,,"inconclusive: 3.16 µM [falling, single point]"
c1c2c(cc3sc(N4CCCCC4)nc13)OCO2,,"inconclusive: 25.1 µM [falling, single point]"
Cc1ccc2nc(NC(=O)CN3C(=O)NC4(CCCC4)C3=O)sc2c1,inconclusive: 7.3%,
COCCNC(=O)Cn1nc(Cc2ccncc2)c2ccccc2c1=O,inconclusive: -0.435%,
CC(C)OCCCNc1nc2c([nH]1)c(=O)n(C)c(=O)n2C,inconclusive: 0%,
CC1CCN(Cc2c(C(=O)N/N=C/c3cccc(C(F)(F)F)c3)nnn2-c2nonc2N)CC1,inactive: -2.45%,
CC(C)=CCN1CCN(Cc2cccn2-c2ncccn2)CC1CCO (stereo unspecified),inactive: -1.8%,
CCOc1ccc(CCNC(=O)C2CCC(CNS(=O)(=O)c3ccc(Cl)cc3)CC2)cc1OCC (stereo unspecified),inactive: -0.975%,
CC(C)(C)Cc1nnc(NC(=O)c2ccco2)s1,,"inconclusive: 35.5 µM [falling, single point]"
COc1ccc(-c2[nH]ncc2-c2cnn(-c3ccccc3)c2)c(O)c1,inconclusive: 4.09%,
COc1cc(C2C3=C(CC(C)(C)CC3=O)NC3=C2C(=O)c2ccccc23)ccc1O (stereo unspecified),inactive: -7.7%,
Cc1ccccc1OCC(=O)N(CC(C)C)c1c(N)n(CC(C)C)c(=O)[nH]c1=O,inconclusive: 10.9%,
O=C(COC(=O)c1cc(S(=O)(=O)N2CCOCC2)ccc1Cl)Nc1ccccc1Cl,inconclusive: -13.2%,
O=C(O)/C=C/C(=O)Nc1ccc(SC(F)(F)C(F)(F)C(F)(F)F)cc1,inconclusive: 0.401%,
O=C(O)CNC(=S)N(Cc1cccs1)C1CCCCC1,inactive: -3.23%,
CNCCCOc1ccc2c(c1)CCC2,inconclusive: -7.02%,
Cc1ccc(C(=O)N/N=C/C=C/c2ccccc2)cc1,inactive: -2.32%,
O=C(/C=C\c1cn(-c2ccccc2)nc1-c1ccccc1)Nc1nccs1,inconclusive: 11.2%,
CN(c1ccccc1)S(=O)(=O)c1ccc(NC(=S)NC(=O)C2CC2)cc1,inactive: 2.92%,

SMILES,"activity change, negative = inhibition",Potency
O=C(Nc1cccnc1)c1cc(-c2cccc(Br)c2)nc2ccccc12,inconclusive: 0.707%,
Cc1cccnc1NC(=S)NC(=O)c1oc2ccccc2c1C,inactive: 1.51%,
O=C(Nc1ccccc1C(=O)O)c1cc(S(=O)(=O)N2CCCCC2)cs1,inconclusive: 8.47%,
c1cnn(-c2nc(N3CCOCC3)nc(N3CCOCC3)n2)c1,,"inconclusive: 12.6 µM [falling, partial curve]"
COc1nc(NC(=O)c2ccc(F)cc2)nc(OC)c1-c1ccccc1,inactive: 1.95%,
O=C(CSc1ccccc1)Nc1cccc(NC(=O)c2ccco2)c1,,"inconclusive: 12.6 µM [falling, partial curve, poor fit]"
O=C(c1cc2ccccc2o1)N1CCCCCC1,,"inconclusive: 23.1 µM [falling, partial curve, poor fit]"
COc1cc2c(cc1OC)CN(C(=O)c1cccc([N+](=O)[O-])c1)CC2,inactive: -4.48%,
CC(=O)N1c2ccc(Cl)cc2C2C=CCC2C1c1cccc2ccccc12 (stereo unspecified),,"inconclusive: 29.1 µM [falling, single point]"
COc1ccc(-c2noc(CN3CCCCC3c3nccn3C)n2)cc1 (stereo unspecified),inactive: 0.58%,
COc1cc2nc(Nc3ccc(F)cc3)nc(N)c2cc1OC,inconclusive: -15.2%,
O=C(N/N=C/c1ccco1)c1cccc(N2CCCC2=O)c1,,"inconclusive: 29.1 µM [falling, single point]"
O=C(CN1C(=O)CCC1=O)c1ccc(-c2ccccc2)cc1,inconclusive: -0.651%,
Cc1cc(OCC(=O)NC(C)c2ccccc2)ccc1[N+](=O)[O-] (stereo unspecified),inactive: -0.783%,
COC(=O)c1ccc(CSc2nc3ccccc3c(=O)n2-c2cccc(OC)c2)o1,inconclusive: 2.86%,
C=CCC[C@@H](Cc1ccc(F)cc1)C(=O)O[C@H](CNC(=O)[C@H](CC=C)CC(=O)N(CCO)Cc1ccccc1)c1ccccc1,inconclusive: 8.57%,
CSCC[C@H](NC(=O)C1CCN(C(=O)[C@@H](N)Cc2ccccc2)CC1)C(=O)O,inactive: 2.23%,
CCC(C)c1ccc(C(C)NC(=S)NCc2ccc(F)cc2)cc1 (stereo unspecified),inconclusive: -10.3%,
COC(=O)C1(CCSC)NC(c2ccc(OC)cc2OC)C2C(=O)N(c3cccc(C(C)=O)c3)C(=O)C21 (stereo unspecified),inconclusive: -2.11%,
O=C(CSc1nc2ccccc2s1)Nc1ccc2c(c1)oc1ccccc12,inactive: 19.5%,
COc1ccc(C)cc1-n1nnnc1SCC(=O)c1cc(C)n(Cc2ccco2)c1C,inconclusive: 12%,

SMILES,"activity change, negative = inhibition",Potency
CSc1cccc(NC(=O)Cn2cnc(S(=O)(=O)N3CCCC3)c2)c1,,"inconclusive: 11.2 µM [falling, partial curve, poor fit]"
O=[N+]([O-])c1ccccc1OCC(O)CN1CCN(CC(O)COc2ccccc2[N+](=O)[O-])CC1 (stereo unspecified),inactive: -10.9%,
CCS(=O)(=O)Nc1cc(-c2nc3cccnc3s2)ccc1C,inconclusive: -4.67%,
Cc1cccc(CN2C3=NCCCN3c3ccccc32)c1,inactive: -0.547%,
Cc1cc(-c2nnc(CCC(=O)N3CCN(Cc4cccnc4)CC3)o2)c(C)o1,,"inconclusive: 12.6 µM [rising, partial curve, poor fit]"
COc1ccc(-c2csc(N(CCCN(C)C)C(=O)c3ccccc3C)n2)cc1,inactive: 1.36%,
CCN(CC)c1cc(C)c2cc(NC(=O)c3ccc(Br)o3)ccc2n1,inconclusive: -6.77%,
COC(=O)c1c(NC(=O)CN2CCC3(O)CCCCC3C2c2cc(OC)ccc2OC)sc(C)c1C (stereo unspecified),inactive: -1.35%,
N#CC(Cc1cc2ccccc2n1S(=O)(=O)c1ccccc1)OCc1ccccc1 (stereo unspecified),inconclusive: -2.66%,
COc1ccc(NC(=O)Cc2ccsc2)cc1S(=O)(=O)N1CCCCC1,inconclusive: 0.989%,
COc1cccc2sc3cc(C#Cc4ccccn4)ccc3c(=O)c12,inconclusive: -8.29%,
CC(C)(C)c1ccccc1OCCCCCNCCO,,"inconclusive: 16.4 µM [falling, partial curve, poor fit]"
CCOC(=O)C1CCN(c2nc3ccccc3nc2C(C#N)C(=O)OC(C)COC)CC1 (stereo unspecified),inconclusive: 2.11%,
O=C(c1ccc([N+](=O)[O-])o1)N1CCN(c2nc3ccc(F)cc3s2)CC1,inactive: -19%,
CC(=O)c1c(C)[nH]c(C(=O)N2CCN(S(=O)(=O)c3ccc(C)cc3C)CC2)c1C,inconclusive: -1.53%,
CCN1C=C(Cc2ccc(F)cc2)C2=C(C1)C(c1ccc(F)cc1)C(C#N)=C(N)O2 (stereo unspecified),,"inconclusive: 14.6 µM [rising, partial curve]"
N#Cc1cc2c([nH]c1=S)CCCCCC2,inconclusive: -15.8%,
Cc1c(/C=N/NC(=O)c2ccc(O)cc2)c2ccccn2c1C(=O)c1ccc(F)cc1,,"inconclusive: 18.4 µM [falling, partial curve, poor fit]"
